From patent publication US6864272B2, “Method and composition for treating cancer using cellular organelle crystallizing agents” (priority 2000, dated 2005)
At least one compound was matched to its structure with a doubt left.

Experiments:
[1] = test system: 9L gliosarcoma tumor cells; test: Cell killing effect of crystallizing agents on 9L gliosarcoma tumor cells (Example 1); format: cell-based, rat; details: 9L gliosarcoma cells, 250, 50, 25, 5 and 0 μg/ml, cell number one day post treatment (FIGS. 1A, 1B)
[2] = test system: 9L gliosarcoma cancer cells; test: Crystallization of organelles and cytoskeleton of 9L gliosarcoma cells (Examples 4-7); format: cell-based, rat; details: 9L cells, 50 ug/ml (FIG. 7)
[3] = test system: SHP77, small cell lung cancer cells (SCLC); test: Crystallization of centrosomes of SHP77 (SCLC) cells (Example 4); format: cell-based

SMILES | killing of tumor cells (surviving tumor cell number) [1] | crystallization of nuclear envelopes and/or endoplasmic reticulum [2] | cell viability ([3]; 50 μg/ml) | crystallization of centrosomes ([3]; 50 μg/ml (FIG. 4))
c1ccc(-c2nn(-c3ccccc3)[n+](-c3ccccc3)n2)cc1 [TR, 2,3,5-triphenyltetrazolium chloride] | effective, in a dose dependent manner, in killing tumor cells | in most cells were frozen by the crystals formed on them |  | 
c1ccc(-c2nn(-c3ccccc3)[n+](-c3cccc4ccccc34)n2)cc1 [TV, 2,5-diphenyl-3-[1-naphthyl]-2H-tetrazolium chloride] | effective, in a dose dependent manner, in killing tumor cells |  | signific reduced | centrosomes, usually one in each cell were crystallized at the poles
